# Test results from the supplement of paper PMC9454738.
# Where a name gives a salt, the structure may show the parent alone. ± gives the standard deviation of the averaged measurements. The list shows a part of the results. This data set is noisy: repeats of one test often differ as much as different tests do.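 Test systems: triple-negative MDA-MB-231 breast cancer cells and their brain-metastatic MDA-MB-231BRM derivative, each stably carrying empty vector, full-length GLI1 or truncated tGLI1. Viability after 48 h was read by CellTiter-Blue and expressed against 1% DMSO vehicle. A compound was tGLI1-selective if it lowered viability 20% more in tGLI1 cells than in vector and GLI1 cells.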
# Tested on: MDA-MB-231BRM Vector
# Assay: cell viability relative to vehicle (DMSO) control (fraction); higher = more viable cells (less growth inhibition)
# Conditions: 0.05 µM; treatment time 48 h
row,Compound,cell viability
1,C[C@H]1[C@H](C)CC[C@]2(C(=O)O)CC[C@]3(C)C(=CC[C@@H]4[C@@]5(C)C[C@@H](O)[C@H](O)[C@@](C)(CO)[C@@H]5CC[C@]43C)[C@H]12 [Asiatic Acid],1.04
2,O=C1NC(=O)C(c2ccccc2[N+](=O)[O-])=C1Nc1ccc(O)c(Cl)c1,1.1
3,Cc1c(Cn2c(C)nc3c(C(=O)O)cc(N4CCOCC4)cc32)cccc1C(F)(F)F,0.602
4,Cc1ccc(NC(=O)c2ccc(CN3CCN(C)CC3)cc2)cc1Nc1nccc(-c2cccnc2)n1 [Imatinib (STI571)],1.05
5,CCC(=O)NCC[C@@H]1CCc2ccc3c(c21)CCO3 [Ramelteon (TAK-375)],1
6,NC(=O)Nc1cc(-c2cccc(F)c2)sc1C(=O)N[C@H]1CCCNC1,0.831
7,COc1cc2ncnc(Oc3ccc(CC(=O)Nc4cnn(C(C)C)c4)cc3)c2cc1OC,1.11
8,CC(C)(C)NS(=O)(=O)c1cncc(-c2cc(F)c3nc(N)nn3c2)c1,1.04
9,O=C(Nc1cc(C(F)(F)F)cc(C(F)(F)F)c1)c1cc(Cl)ccc1O,1.08
10,CN1CCC(COc2cnc(-c3cccc(Cn4nc(-c5cccc(C#N)c5)ccc4=O)c3)nc2)CC1,1.01
11,CC(C)CC(=O)Nc1n[nH]c2c1CN(C(=O)C1CCN(C)CC1)C2(C)C,1.25
12,COc1cc2ncc(-c3ccccc3)nc2cc1OC [Tyrphostin AG 1296],0.515
13,C1=N/C2=N/c3ccc(OCCN4CCCC4)c(c3)COC/C=C/COCc3cccc(c3)C(=C1)N2 [Pacritinib (SB1518)],0.562
14,O=C(NCCO)c1cccc(-c2cc(Nc3ccc(OC(F)(F)F)cc3)ncn2)c1,0.861
15,N#CC(=C(/N)Sc1ccccc1N)/C(C#N)=C(\N)Sc1ccccc1N,0.961
16,CN(C)Cc1cccc(N/C(=C2\C(=O)Nc3cc(C(N)=O)ccc32)c2ccccc2)c1,0.772
17,C[C@@H](CN1CC(=O)NC(=O)C1)N1CC(=O)NC(=O)C1 [Dexrazoxane Hydrochloride],1.09
18,COc1ccc(-c2ccc3ncc4c(c3c2)n(-c2ccc(N3CCNCC3)c(C(F)(F)F)c2)c(=O)n4C)cn1,1.03
19,CC(C)(C)c1cnc(CSc2cnc(NC(=O)C3CCNCC3)s2)o1,1.03
20,Cc1c(F)cc(C(=O)NC2CC2)cc1-c1ccc(C(=O)NCC(C)(C)C)cn1,1.16

# Quoted from the results shown for reference:
row,Compound,cell viability
2,O=C1NC(=O)C(c2ccccc2[N+](=O)[O-])=C1Nc1ccc(O)c(Cl)c1,1.1
3,Cc1c(Cn2c(C)nc3c(C(=O)O)cc(N4CCOCC4)cc32)cccc1C(F)(F)F,0.602
4,Cc1ccc(NC(=O)c2ccc(CN3CCN(C)CC3)cc2)cc1Nc1nccc(-c2cccnc2)n1 [Imatinib (STI571)],1.05

# Going on with the list:

row,Compound,cell viability
1,CCCC1O[C@@H]2C[C@H]3[C@@H]4CCC5=CC(=O)C=C[C@]5(C)[C@H]4[C@@H](O)C[C@]3(C)[C@]2(C(=O)CO)O1 (some centres undefined) [Budesonide],1.01
2,C[C@@H](Oc1cc(-c2cnn(C3CCNCC3)c2)cnc1N)c1c(Cl)ccc(F)c1Cl,0.988 ± 0.1
3,O=C1NC(=O)/C(=C/c2ccc3nccc(-c4ccncc4)c3c2)S1,1.11
4,Cc1ccc2nc(NCCN)c3ncc(C)n3c2c1,0.913
5,CC(=O)[C@]1(O)Cc2c(O)c3c(c(O)c2[C@@H](O[C@H]2C[C@H](N)[C@H](O)[C@H](C)O2)C1)C(=O)c1ccccc1C3=O [Idarubicin HCl],0.181
6,NC1(c2ccc(-c3nc4ccn5c(=O)[nH]nc5c4cc3-c3ccccc3)cc2)CCC1,0.935
7,O=C1NC(=O)/C(=C/c2ccc(-c3ccc(F)cc3O)o2)S1,1.04
8,CN(C)CCOc1ccc(-c2nc(-c3ccncc3)c(-c3ccc4c(c3)CC/C4=N\O)[nH]2)cc1,0.746
9,O=C1NC(=O)/C(=C/c2cccc(C(F)(F)F)c2)S1,0.849
10,C=CC(=O)Nc1ccc2ncnc(Nc3cccc(Br)c3)c2c1,1.1
11,"COc1cc(F)c(F)c(Nc2ccc(I)cc2F)c1NS(=O)(=O)C1(C[C@H](O)CO)CC1 [Refametinib (RDEA119, Bay 86-9766)]",0.974
12,Cc1cc(CN2CCN(c3c(Br)cnc4nc(-c5ccc(N6CCN(C)CC6)cc5)[nH]c34)CC2)no1,1.02
13,Cc1cc(F)c(Nc2ncnc3cc(OCc4ccccc4)ccc23)cc1O,1.03
14,CN1CCC(CNc2ccc3ncc(-c4cccc(OC(F)(F)F)c4)n3n2)CC1 [SGI-1776 free base],0.672
15,COc1cc(OC)c(/C=C/S(=O)(=O)Cc2ccc(OC)c(NCC(=O)O)c2)c(OC)c1,1.15
16,COc1ncc(-c2ccc3nccc(-c4ccnnc4)c3c2)cc1NS(=O)(=O)c1ccc(F)cc1F,1.02
17,S=C(NCc1ccc2c(c1)OCO2)N1CCN(c2ncnc3c2oc2ccccc23)CC1 [Amuvatinib (MP-470)],0.784
18,OCCn1cc(-c2cnc3nnn(Cc4ccc5ncccc5c4)c3n2)cn1,0.914
19,Cc1c(NC(=O)c2ccc(C(C)(C)C)cc2)cccc1-c1cn(C)c(=O)c(Nc2ccc(C(=O)N3CCOCC3)cc2)n1,1.12
